Assay results taken from patent US20060039900A1 (Janssen / Centocor, published 2006).
These are yes or no findings as the source states them, for the method shown. Some binding calls cover weakened binding; strength is not graded here.

Biological target: T1, soluble murine tissue factor extracellular domain (murine) (UniProt P20352)
T1 sequence: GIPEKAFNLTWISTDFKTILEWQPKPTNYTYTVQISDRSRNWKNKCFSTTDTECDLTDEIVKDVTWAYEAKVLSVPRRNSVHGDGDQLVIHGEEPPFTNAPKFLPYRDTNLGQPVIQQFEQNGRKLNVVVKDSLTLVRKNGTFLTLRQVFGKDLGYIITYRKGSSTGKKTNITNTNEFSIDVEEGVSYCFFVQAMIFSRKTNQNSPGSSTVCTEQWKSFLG
Experiment: ELISA, purified Fabs

B1: PHD127 Fab (Fab, V domains shown)
VH: QVQLVQSGAEVKKPGESLKISCKGSYSFTNSWISWVRQMPGKGLEWMGIIDPDDSYTSYSPSFQGQVTISADKSISTAYLQWSSLKASDTAMYYCARGAGYGRMFGDVWGQGTLVTVSS
VL: DIELTQPPSVSVAPGQTARISCSGDNLGSYYASWYQQKPGQAPVLVIYQDDNRPSGIPERFSGSNSGNTATLTISGTQAEDEADYYCGAYTYSTSWVFGGGTKLTVLG
notes: Human Fab from the HuCAL library
binding: binds

B2: PHD103 Fab (Fab, V domains shown)
VH: QVQLVQSGAEVKKPGESLKISCKGSGYSFSNSWIAWVRQMPGKGLEWMGGIIGPGHSYTKYSPSFQGQVTISADKSISTAYLQWSSLKASDTAMYYCARINMGYFDYWGQGTLVTVSS
VL: DIELTQPPSVSVAPGQTARISCSGDSLGLKKFVSWYQQKPGQAPVLVIYDDSNRPSGIPERFSGSNSGNTATLTISGTQAEDEADYYCGTYDQTIGHDVVFGGGTKLTVLG
binding: binds
